At least one compound was matched to its structure with a doubt left.
Tested on: db/db mice
Assay: Fed glucose profile in diabetic db/db mice after single subcutaneous injection
Assay type: in vivo
Settings: single s.c. 30 nmol/kg, 24 hours post-treatment (FIG. 6)

CCCCCCCCCCCCCCCC(=O)N[C@@H](CCC(=O)NCCCC[C@H](NC(=O)[C@H](C)NC(=O)[C@H](C)NC(=O)[C@H](CCC(N)=O)NC(=O)CNC(=O)[C@H](CCC(=O)O)NC(=O)[C@H](CC(C)C)NC(=O)[C@H](Cc1ccc(O)cc1)NC(=O)[C@H](CO)NC(=O)[C@H](CO)NC(=O)[C@@H](NC(=O)[C@H](CC(=O)O)NC(=O)[C@H](CO)NC(=O)[C@@H](NC(=O)[C@H](Cc1ccccc1)NC(=O)[C@@H](NC(=O)CNC(=O)[C@H](CCC(=O)O)NC(=O)[C@H](C)NC(=O)[C@@H](N)Cc1cnc[nH]1)[C@@H](C)O)[C@@H](C)O)C(C)C)C(=O)N[C@@H](CCC(=O)O)C(=O)N[C@@H](Cc1ccccc1)C(=O)N[C@H](C(=O)N[C@@H](C)C(=O)N[C@@H](Cc1c[nH]c2ccccc12)C(=O)N[C@@H](CC(C)C)C(=O)N[C@H](C(=O)N[C@@H](CCCNC(=N)N)C(=O)NCC(=O)N[C@@H](CCCNC(=N)N)C(=O)NCC(=O)O)C(C)C)[C@@H](C)CC)C(=O)O [liraglutide, reference compound]
change in blood glucose levels: did not change blood glucose levels

— patent US9868772B2 (INDIANA UNIVERSITY RESEARCH AND TECHNOLOGY CORPORATION, priority 2012, dated 2018)
